Reference: PubChem BioAssay AID1224828 (NIAID, 2016)
Purpose: 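Knock-downs that increase or decrease LPS-induced p65 nuclear translocation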 (primary screen). System: mouse RAW264.7 G9 macrophage reporter cells (GFP-p65, Tnf promoter-mCherry). Reagent: siRNA pool against mouse genes, 100 nM. Time to read-out: 2 days siRNA transfection, then 40 min LPS before fixation. Treatment: LPS (Salmonella minnesota R595) at 10 ng/ml. Measured: 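Imaged p65 nuclear translocation ratio, normalised to the plate median, converted to robust z-scores and averaged across two replicates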. Reading the numbers: p65 translocation robust z-score: higher = more nuclear NF-kappaB p65 after LPS than the plate median; nuclear/cytoplasmic p65 ratio: higher = more nuclear NF-kappaB p65. Call rule: 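Called active when z exceeds 3.3 or falls under -1.56 (median of Tlr4 controls), giving activity score of at least 50; no calls for control wells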. Meaning of the calls: active = hit (p65 shift raised or lowered); inactive = no clear change.
Here is one part, drawn at random, of about 17,000 deposited reagents. 762 of them (4.5%) count as active. 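Active calls include both raised and lowered p65 entry, mostly lowered; wells with fewer than 50 cells lack a z-score.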 The raw values are shown without normalisation. Unmarked entries are inactive. No sequences are given here.

| Gene | p65 translocation robust z-score | nuclear/cytoplasmic p65 ratio, rep 1 | nuclear/cytoplasmic p65 ratio, rep 2 | low cell count flag |
| --- | --- | --- | --- | --- |
| Ing5 | 0.56 | 1.59 | 1.55 | enough cells to score |
| Zfp146 | 0.39 | 1.6 | 1.52 | enough cells to score |
| Gngt2 | 1.33 | 1.84 | 1.74 | enough cells to score |
| Pnpla7 | 1.39 | 1.85 | 2 | enough cells to score |
| Edaradd | 0.58 | 1.59 | 1.4 | enough cells to score |
| Tcte2 | – | 1.08 | 1.1 | fewer than 50 cells per well; well left out of scoring |
| Sppl3 | – | 1.12 | 1.07 | fewer than 50 cells per well; well left out of scoring |
| Ppip5k1 | 0.2 | 1.56 | 1.93 | enough cells to score |
| Ddah1 | 0.01 | 1.55 | 1.57 | enough cells to score |
| D17H6S56E-5 | 0.92 | 1.68 | 1.6 | enough cells to score |
| BC016579 | -0.59 | 1.45 | 1.79 | enough cells to score |
| Zfp472 | – | 2.2 | 1.27 | fewer than 50 cells per well; well left out of scoring |
| Wdr27 | -0.07 | 1.49 | 1.44 | enough cells to score |
| Psma1 | – | 1.44 | 1.15 | fewer than 50 cells per well; well left out of scoring |
| Lcn10 | -0.17 | 1.4 | 1.53 | enough cells to score |
| Spink8 | 0.39 | 1.66 | 1.83 | enough cells to score |
| Zfp33b | -0.23 | 1.29 | 1.32 | enough cells to score |
| 9530091C08Rik | 0.07 | 1.49 | 1.5 | enough cells to score |
| Cyp4f15 | 0.26 | 1.62 | 1.82 | enough cells to score |
| Thsd1 | 0.7 | 1.45 | 1.24 | enough cells to score |
| Ern2 | -0.26 | 1.59 | 1.39 | enough cells to score |
| Adgre5 | 0.75 | 1.62 | 1.68 | enough cells to score |
| Tifab | 0.66 | 1.79 | 1.83 | enough cells to score |
| Tas2r109 | -0.12 | 1.35 | 1.01 | enough cells to score |
| Nr1i2 | 0.77 | 1.49 | 1.57 | enough cells to score |
| Lamc3 | 0.28 | 1.55 | 1.38 | enough cells to score |
| Polr2g | -1.21 | 1.27 | 1.25 | enough cells to score |
| Cox7a2l | 0.81 | 1.74 | 1.86 | enough cells to score |
| Runx2 | – | 1.09 | 1.15 | fewer than 50 cells per well; well left out of scoring |
| Cln3 | 0.1 | 1.44 | 1.43 | enough cells to score |
| A430010J10Rik | -1.41 | 1.28 | 1.33 | enough cells to score |
| Dek | -0.57 | 1.41 | 1.29 | enough cells to score |
| Steap4 | – | 1.12 | 1.14 | fewer than 50 cells per well; well left out of scoring |
| Zcchc17 | 1.3 | 1.54 | 1.66 | enough cells to score |
| Ro60 | -0.1 | 1.44 | 1.19 | enough cells to score |
| Necab1 | 0 | 1.41 | 1.41 | enough cells to score |
| Wnt3 | -0.83 | 1.39 | 1.49 | enough cells to score |
| Ccl25 | – | 1.39 | 1.2 | fewer than 50 cells per well; well left out of scoring |
| Echs1 | -0.23 | 1.46 | 1.32 | enough cells to score |
| Timm50 | 1.05 | 1.8 | 1.74 | enough cells to score |
| Mid1ip1 | – | 1.36 | 1.31 | fewer than 50 cells per well; well left out of scoring |
| Eif2s3y | -1.02 | 1.31 | 1.25 | enough cells to score |
| Rpl37a | – | 1.4 | 1.21 | fewer than 50 cells per well; well left out of scoring |
| Amigo1 | 0.72 | 1.79 | 1.72 | enough cells to score |
| Tmem147 | -1.68 (active) | 1.15 | 1.34 | enough cells to score |
| Arpc2 | -1.29 | 1.39 | 1.46 | enough cells to score |
| Clcnka | -1.06 | 1.2 | 1.24 | enough cells to score |
| Slc13a2 | 0.02 | 1.47 | 1.2 | enough cells to score |
| Rtl6 | -1.19 | 1.29 | 1.34 | enough cells to score |
| Spop | -0.15 | 1.4 | 1.22 | enough cells to score |
| Sycp1 | -0.18 | 1.38 | 1.14 | enough cells to score |
| Adgrl3 | 0.99 | 1.58 | 1.79 | enough cells to score |
| Gng7 | -2.43 (active) | 1.21 | 1.18 | enough cells to score |
| Lpin3 | – | 1.64 | 1 | fewer than 50 cells per well; well left out of scoring |
| Aamp | -0.23 | 1.51 | 1.65 | enough cells to score |
| Zbtb17 | -0.4 | 1.47 | 1.43 | enough cells to score |
| Mtnr1b | 0.23 | 1.58 | 1.59 | enough cells to score |
| Actl7b | -0.22 | 1.53 | 1.64 | enough cells to score |
| Lin37 | – | 1.41 | 1.2 | fewer than 50 cells per well; well left out of scoring |

Active calls (from the list above):
| Gene | p65 translocation robust z-score | nuclear/cytoplasmic p65 ratio, rep 1 | nuclear/cytoplasmic p65 ratio, rep 2 | low cell count flag |
| --- | --- | --- | --- | --- |
| Tmem147 | -1.68 (active) | 1.15 | 1.34 | enough cells to score |
| Gng7 | -2.43 (active) | 1.21 | 1.18 | enough cells to score |
